{"source": "patent US20120263762A1", "about": "“STABILISED PARTICLES COMPRISING 5-METHYL-(6S)-TETRAHYDROFOLATE” (BAYER PHARMA AKTIENGESELLSCHAFT, priority 2009, published 2012)", "test": "Particle size distribution of particles (laser diffraction, volume distribution)", "type": "physicochemical", "conditions": "micronized active ingredient before coating", "from_the_text": "When used herein, the term “d90 particle size” is intended to mean that the particle size distribution is so that at least 90% of the particles have a particle diameter of less than the specified value, calculated from the volume distribution curve under the presumption of spherical particles. In a similar way, the term “d50 particle size” is intended to mean that the particle size distribution is so that at least 50% of the particles have a particle diameter of less than the specified value, calculated from the volume distribution curve under the presumption of spherical particles.\nTherefore, it is important to note that whenever the terms “particle size”, “particle size distribution”, “particle diameter”, “d90”, “d50”, etc., are used herein it should be understood that the specific values or ranges used in connection therewith are always meant to be determined from the volume distribution curve under the presumption of spherical particles. The particle size distribution may be determined by various techniques, e.g. laser diffraction, and will be known to the person skilled in the art. […] The particle size distribution of the particles, when incorporated in a wafer, may be determined by dissolving the film forming matrix, separation of the protected particles, and drying the protected particles. […]", "note": "At least one structure is not confirmed: it was looked up by name or label, or the drawing left a doubt.", "data": [{"smiles": "C#C[C@]1(O)CC[C@H]2[C@@H]3CCc4cc(O)ccc4[C@H]3CC[C@@]21C", "note": "[ethinylestradiol]", "values": [{"measurement": "d50", "value": 1.5, "unit": "μm"}, {"measurement": "d90", "value": 4.0, "unit": "μm"}]}]}
